{
  "source": "paper PMC10131585",
  "about": "“Computational design of a cyclic peptide that inhibits the CTLA4 immune checkpoint” (RSC Medicinal Chemistry, 2023)",
  "key": {"[1]": {"tested_on": "Lewis lung carcinoma (LLC) cells", "experiment": "Cytotoxicity of antigen-primed CD8+ T cells to LLC cells in co-culture (flow cytometry)", "assay_type": "cell-based, mouse", "details": "for Ratio of dead LLC cells to total LLC cells: mean ± SD (n = 2); for Effect in co-culture of LLC and antigen-primed T cells (in words): LLC cells with antigen-primed CD8+ T cells"}, "[2]": {"tested_on": "LLC tumors in mouse lungs", "experiment": "LLC mouse lung allograft model", "assay_type": "in vivo"}, "[3]": {"details": "inferred by the authors from failed/successful synthesis and number of charged/hydrophobic residues"}},
  "data": [
    {"compound": "CC[C@H](C)[C@@H]1NC(=O)[C@H](CCC(=O)O)NC(=O)[C@H](CO)NC(=O)[C@H](Cc2ccc(O)cc2)NC(=O)[C@H](CCCNC(=N)N)NC(=O)[C@H](CCCCN)NC(=O)[C@H](C)NC(=O)[C@H](C(C)C)NC(=O)[C@H](Cc2c[nH]c3ccccc23)NC(=O)CNC(=O)[C@H]([C@@H](C)O)NC(=O)[C@@H]2CCCN2C(=O)[C@H]([C@@H](C)O)NC(=O)[C@H](CC(C)C)NC(=O)[C@H](C(C)C)NC(=O)[C@H]([C@@H](C)O)NC(=O)[C@H](CC(=O)O)NC1=O", "note": "[Peptide 16]", "values": [
      {"measurement": "Ratio of dead LLC cells to total LLC cells", "setting": "[1]; 10 μmol L^−1, 18 h (time from Fig. 8 legend), LLC:AP-CD8+ T cells 1:16, PBS control 12.7 ± 0.3, p < 0.05", "result": "43.8 ± 3.0", "unit": "%"},
      {"measurement": "Ratio of dead LLC cells to total LLC cells", "setting": "[1]; 10 μmol L^−1, 36 h, not significant", "result": "68.2 ± 12.3", "unit": "%"},
      {"measurement": "Effect in co-culture of LLC and antigen-primed T cells (in words)", "setting": "[1]", "result": "promoted the cytotoxic effect of antigen-primed CD8^+ T cells"},
      {"measurement": "Effect in co-culture of LLC and antigen-primed T cells (in words)", "setting": "[1]; listed as cyc(EIDTVLTPTGWVAKRYS)", "result": "inhibited tumor growth"},
      {"measurement": "Mice with tumor nodules (out of group)", "setting": "[2]; 10 mg kg^−1 per day, intraperitoneal, with JAWS-irrLLC, control 5 out of 6", "result": "4 out of 5"},
      {"measurement": "Number of tumor nodules", "setting": "[2]; 10 mg kg^−1 per day, intraperitoneal, with JAWS-irrLLC, mean ± SD (n = 5–6), control JAWS-irrLLC only 3.50 ± 2.57", "result": "1.60 ± 0.80"},
      {"measurement": "Tumor growth in vivo (in words)", "setting": "[2]; Lewis lung carcinoma allograft, mice, listed as cyc(EIDTVLTPTGWVAKRYS)", "result": "inhibited tumor growth"},
      {"measurement": "Solubility (in words)", "setting": "[3]", "result": "much greater solubility"}
    ]}
  ]
}
